According to the supplement of paper PMC11006884:
This is a selection; strong and weak results do not stand in their true shares. Single values of this set are uncertain.

Sequences of proteins named here, by UniProt entry; tags and fusion partners are left off. A change or cut given only in a name is not applied to a line headed by its entry.
UniProt O95232: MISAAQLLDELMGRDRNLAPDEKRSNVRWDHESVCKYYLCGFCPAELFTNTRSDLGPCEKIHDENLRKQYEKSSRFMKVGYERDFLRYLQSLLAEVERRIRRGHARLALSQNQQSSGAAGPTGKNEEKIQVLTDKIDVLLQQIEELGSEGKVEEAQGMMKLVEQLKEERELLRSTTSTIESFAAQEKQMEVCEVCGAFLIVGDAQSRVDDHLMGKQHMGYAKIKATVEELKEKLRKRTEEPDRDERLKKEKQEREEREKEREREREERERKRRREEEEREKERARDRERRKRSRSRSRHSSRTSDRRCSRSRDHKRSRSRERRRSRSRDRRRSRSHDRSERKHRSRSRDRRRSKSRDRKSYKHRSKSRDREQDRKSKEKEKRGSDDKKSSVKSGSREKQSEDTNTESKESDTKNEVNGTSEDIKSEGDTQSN
UniProt P06733, whole entry, looked up: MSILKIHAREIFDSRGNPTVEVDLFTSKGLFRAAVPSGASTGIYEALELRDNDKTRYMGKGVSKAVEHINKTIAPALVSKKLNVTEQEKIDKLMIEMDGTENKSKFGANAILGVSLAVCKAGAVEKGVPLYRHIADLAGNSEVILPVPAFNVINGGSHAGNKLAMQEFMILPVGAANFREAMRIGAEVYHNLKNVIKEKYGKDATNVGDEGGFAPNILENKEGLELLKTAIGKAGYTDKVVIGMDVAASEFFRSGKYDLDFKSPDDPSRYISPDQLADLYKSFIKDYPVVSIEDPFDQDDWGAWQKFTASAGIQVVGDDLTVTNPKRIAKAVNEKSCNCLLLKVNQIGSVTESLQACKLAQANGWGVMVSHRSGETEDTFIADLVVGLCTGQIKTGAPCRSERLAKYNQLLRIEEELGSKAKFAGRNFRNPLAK
UniProt O94953: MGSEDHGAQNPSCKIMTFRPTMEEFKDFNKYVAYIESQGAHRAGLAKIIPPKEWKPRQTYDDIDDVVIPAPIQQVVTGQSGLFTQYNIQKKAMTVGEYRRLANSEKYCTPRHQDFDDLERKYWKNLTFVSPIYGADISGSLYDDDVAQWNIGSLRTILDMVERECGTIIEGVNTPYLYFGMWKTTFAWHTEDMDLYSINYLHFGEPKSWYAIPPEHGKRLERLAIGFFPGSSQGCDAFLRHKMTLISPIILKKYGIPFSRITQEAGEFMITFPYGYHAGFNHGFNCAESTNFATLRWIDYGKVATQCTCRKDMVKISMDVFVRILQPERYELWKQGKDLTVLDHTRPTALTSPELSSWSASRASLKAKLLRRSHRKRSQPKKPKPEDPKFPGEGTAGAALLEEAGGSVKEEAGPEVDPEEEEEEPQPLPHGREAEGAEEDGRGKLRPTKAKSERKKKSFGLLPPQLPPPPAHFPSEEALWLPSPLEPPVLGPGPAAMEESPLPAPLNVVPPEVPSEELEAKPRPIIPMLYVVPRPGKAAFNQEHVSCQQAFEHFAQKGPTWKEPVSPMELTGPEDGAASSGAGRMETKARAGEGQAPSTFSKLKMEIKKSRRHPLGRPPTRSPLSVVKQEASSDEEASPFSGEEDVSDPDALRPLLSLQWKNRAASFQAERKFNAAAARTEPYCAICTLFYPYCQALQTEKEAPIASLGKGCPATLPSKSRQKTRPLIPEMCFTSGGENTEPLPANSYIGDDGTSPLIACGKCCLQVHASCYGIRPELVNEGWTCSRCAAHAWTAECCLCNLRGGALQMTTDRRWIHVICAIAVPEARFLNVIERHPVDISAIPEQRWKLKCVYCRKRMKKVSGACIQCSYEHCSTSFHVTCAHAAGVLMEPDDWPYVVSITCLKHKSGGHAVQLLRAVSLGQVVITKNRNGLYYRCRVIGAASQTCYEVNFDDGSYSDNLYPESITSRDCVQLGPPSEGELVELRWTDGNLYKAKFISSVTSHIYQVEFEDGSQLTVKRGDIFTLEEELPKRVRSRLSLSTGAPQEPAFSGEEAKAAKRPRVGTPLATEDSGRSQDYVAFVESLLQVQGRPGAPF
UniProt O95983: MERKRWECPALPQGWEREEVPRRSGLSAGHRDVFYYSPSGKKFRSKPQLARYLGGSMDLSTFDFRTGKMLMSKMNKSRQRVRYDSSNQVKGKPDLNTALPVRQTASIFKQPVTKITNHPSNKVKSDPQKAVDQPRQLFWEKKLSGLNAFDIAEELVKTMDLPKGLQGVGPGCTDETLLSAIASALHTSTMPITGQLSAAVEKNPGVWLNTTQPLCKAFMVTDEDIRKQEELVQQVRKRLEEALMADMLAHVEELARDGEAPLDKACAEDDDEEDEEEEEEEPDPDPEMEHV
UniProt O95159: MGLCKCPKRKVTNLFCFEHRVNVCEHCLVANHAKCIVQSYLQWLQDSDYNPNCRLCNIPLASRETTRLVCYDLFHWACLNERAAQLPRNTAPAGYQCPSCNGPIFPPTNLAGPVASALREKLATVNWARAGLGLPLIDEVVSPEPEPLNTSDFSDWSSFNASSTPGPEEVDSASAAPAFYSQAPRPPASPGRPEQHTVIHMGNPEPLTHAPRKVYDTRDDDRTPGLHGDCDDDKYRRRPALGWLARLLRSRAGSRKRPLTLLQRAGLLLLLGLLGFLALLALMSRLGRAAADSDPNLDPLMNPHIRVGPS
UniProt O95801: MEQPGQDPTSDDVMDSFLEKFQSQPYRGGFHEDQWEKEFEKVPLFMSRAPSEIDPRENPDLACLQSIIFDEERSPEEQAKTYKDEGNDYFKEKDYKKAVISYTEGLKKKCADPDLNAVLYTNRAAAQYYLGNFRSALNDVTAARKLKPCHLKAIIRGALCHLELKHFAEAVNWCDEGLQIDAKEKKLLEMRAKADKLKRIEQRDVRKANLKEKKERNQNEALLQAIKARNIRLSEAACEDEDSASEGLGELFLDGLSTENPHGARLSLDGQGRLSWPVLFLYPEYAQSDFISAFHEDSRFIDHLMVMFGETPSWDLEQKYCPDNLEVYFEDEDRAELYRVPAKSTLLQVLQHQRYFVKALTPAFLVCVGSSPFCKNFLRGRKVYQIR
UniProt O94927: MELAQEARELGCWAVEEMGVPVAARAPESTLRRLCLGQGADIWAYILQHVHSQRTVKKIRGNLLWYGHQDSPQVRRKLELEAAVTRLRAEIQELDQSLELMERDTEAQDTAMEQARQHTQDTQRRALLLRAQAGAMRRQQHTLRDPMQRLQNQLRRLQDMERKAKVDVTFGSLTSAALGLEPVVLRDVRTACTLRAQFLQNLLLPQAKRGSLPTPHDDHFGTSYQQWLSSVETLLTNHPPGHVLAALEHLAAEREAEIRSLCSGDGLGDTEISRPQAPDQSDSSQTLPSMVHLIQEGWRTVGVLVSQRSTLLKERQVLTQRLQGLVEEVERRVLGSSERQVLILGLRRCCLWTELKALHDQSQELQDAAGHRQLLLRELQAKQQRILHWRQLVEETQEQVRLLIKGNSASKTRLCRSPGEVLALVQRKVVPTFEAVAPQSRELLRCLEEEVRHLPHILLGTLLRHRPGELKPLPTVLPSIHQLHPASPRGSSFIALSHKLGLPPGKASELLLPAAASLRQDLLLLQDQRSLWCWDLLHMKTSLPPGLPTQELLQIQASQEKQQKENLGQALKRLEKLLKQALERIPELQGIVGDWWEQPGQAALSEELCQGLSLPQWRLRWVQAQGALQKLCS
UniProt P04181: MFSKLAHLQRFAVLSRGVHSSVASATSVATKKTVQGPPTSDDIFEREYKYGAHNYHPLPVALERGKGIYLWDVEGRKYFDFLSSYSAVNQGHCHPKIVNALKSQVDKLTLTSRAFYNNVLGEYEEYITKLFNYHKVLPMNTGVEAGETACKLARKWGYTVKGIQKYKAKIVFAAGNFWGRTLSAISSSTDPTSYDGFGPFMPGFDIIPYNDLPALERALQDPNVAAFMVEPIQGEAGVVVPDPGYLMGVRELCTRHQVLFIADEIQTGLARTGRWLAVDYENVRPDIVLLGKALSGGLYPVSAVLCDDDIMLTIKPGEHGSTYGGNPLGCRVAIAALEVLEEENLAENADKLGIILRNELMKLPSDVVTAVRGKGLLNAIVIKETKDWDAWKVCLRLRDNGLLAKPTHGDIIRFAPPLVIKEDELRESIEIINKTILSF
UniProt P00568: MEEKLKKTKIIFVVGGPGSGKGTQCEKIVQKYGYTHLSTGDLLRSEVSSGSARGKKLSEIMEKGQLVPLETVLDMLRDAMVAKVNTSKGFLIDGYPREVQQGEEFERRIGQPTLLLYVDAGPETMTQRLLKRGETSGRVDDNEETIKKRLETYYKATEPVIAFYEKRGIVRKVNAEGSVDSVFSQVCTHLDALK
UniProt O95347, whole entry, looked up: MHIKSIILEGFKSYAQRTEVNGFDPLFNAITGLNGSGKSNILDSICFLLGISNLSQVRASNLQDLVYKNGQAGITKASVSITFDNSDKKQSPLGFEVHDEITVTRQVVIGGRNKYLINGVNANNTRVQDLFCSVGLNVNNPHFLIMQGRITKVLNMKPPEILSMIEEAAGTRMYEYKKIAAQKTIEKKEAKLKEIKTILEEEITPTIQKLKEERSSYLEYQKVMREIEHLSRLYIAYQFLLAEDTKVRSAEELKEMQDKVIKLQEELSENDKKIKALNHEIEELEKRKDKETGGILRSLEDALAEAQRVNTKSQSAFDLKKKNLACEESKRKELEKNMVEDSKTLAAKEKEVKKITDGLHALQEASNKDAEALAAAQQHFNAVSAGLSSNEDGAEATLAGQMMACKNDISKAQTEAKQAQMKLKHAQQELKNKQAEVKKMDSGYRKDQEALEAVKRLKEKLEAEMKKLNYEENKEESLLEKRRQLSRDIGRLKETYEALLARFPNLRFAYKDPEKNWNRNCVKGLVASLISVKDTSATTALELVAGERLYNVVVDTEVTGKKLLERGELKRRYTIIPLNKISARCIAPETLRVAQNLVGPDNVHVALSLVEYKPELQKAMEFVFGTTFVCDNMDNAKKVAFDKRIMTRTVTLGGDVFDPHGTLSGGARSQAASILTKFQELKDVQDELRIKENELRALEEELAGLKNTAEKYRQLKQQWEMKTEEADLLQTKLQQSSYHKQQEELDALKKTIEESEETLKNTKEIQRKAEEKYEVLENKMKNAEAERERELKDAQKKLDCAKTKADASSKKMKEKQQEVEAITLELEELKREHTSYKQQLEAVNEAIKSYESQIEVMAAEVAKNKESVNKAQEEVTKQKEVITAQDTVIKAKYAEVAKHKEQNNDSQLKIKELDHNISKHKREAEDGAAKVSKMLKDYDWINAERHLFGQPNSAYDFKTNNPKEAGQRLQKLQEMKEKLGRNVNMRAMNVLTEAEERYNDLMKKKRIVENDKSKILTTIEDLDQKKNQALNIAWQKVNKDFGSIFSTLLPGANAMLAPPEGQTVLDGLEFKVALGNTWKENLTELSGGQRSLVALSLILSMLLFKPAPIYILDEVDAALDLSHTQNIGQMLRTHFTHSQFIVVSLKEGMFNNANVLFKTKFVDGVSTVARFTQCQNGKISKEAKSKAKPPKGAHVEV
UniProt O95104: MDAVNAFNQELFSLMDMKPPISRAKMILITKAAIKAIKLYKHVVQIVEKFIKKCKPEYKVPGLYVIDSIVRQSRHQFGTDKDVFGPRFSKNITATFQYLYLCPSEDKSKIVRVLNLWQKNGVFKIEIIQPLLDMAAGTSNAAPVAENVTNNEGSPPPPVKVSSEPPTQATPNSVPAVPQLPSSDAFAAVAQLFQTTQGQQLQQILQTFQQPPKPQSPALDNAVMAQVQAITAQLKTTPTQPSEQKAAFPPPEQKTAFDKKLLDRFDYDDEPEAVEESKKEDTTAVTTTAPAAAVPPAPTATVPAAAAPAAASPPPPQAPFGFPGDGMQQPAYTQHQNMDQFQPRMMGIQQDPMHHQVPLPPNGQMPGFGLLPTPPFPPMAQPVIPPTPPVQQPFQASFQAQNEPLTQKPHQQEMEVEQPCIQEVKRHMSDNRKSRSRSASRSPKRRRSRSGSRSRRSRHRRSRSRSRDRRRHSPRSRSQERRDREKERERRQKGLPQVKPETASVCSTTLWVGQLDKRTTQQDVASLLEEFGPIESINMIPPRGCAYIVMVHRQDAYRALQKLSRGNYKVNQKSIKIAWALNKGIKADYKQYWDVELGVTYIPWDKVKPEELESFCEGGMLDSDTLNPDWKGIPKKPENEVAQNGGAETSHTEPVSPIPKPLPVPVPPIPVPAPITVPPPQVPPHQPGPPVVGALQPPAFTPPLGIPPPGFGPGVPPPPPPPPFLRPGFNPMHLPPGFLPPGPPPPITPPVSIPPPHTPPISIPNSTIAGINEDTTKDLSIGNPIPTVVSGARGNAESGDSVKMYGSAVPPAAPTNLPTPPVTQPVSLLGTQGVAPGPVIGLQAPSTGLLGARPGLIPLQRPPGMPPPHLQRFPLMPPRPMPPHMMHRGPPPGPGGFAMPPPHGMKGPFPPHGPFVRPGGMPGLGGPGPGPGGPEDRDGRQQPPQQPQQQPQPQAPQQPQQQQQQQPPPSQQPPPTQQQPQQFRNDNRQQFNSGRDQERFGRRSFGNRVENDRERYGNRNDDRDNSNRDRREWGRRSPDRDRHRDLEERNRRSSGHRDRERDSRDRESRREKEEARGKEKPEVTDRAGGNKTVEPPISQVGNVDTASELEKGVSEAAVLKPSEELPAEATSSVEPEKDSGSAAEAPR

Compound: COC(=O)/C=C/c1ccccc1 [methyl cinnamate]
Test: log2 ratio of iodoacetamide-alkyne labeling of the cysteine site, DMSO over compound (competition); higher = stronger covalent engagement of the cysteine by the compound, active = 1 or more
Details: 500 µM; treatment time 1 h; system: HEK293T cell lysate
Procedure, shortened: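 HEK293T lysate (2 mg/mL) was incubated with electrophile (500 µM) or vehicle for 1 h at ambient temperature and then with iodoacetamide alkyne for 1 h. Labelled proteins were clicked to sCIP-TMT reagents, pooled, digested, enriched on streptavidin and measured by Orbitrap Eclipse LC-MS/MS with FAIMS, with FragPipe quantification. The per-cysteine log2 competition ratio is mean control-channel reporter intensity over mean compound-channel reporter intensity. Across three replicates with duplicate channels, cysteines quantified in only one replicate were excluded.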

log2 ratio of iodoacetamide-alkyne labeling, inactive:
MYO1D C143 (UniProt O94832) 0.462, UniProt O95232_C43 -0.325, GAPDH C156 (UniProt P04406) 0.14, TOMM40 C74 (UniProt O96008) 0.184, NPM1 C21 (UniProt P06748) 0.145, ENO1 C339 (UniProt P06733) -0.227, PCNT C2150 (UniProt O95613) 0.335, UniProt O94953_C971 0.257, ZRANB2 C85 (UniProt O95218) 0.153, GLS C203 (UniProt O94925) 0.224, BAG2 C142 (UniProt O95816) 0.134, GAPDH C152 (UniProt P04406) 0.139, RPLP0 C119 (UniProt P05388) 0.139, PRKD3 C29 (UniProt O94806) 0.275, UniProt P07437_C201 0.193, MBD3 C215 (UniProt O95983) 0.519, HSPA4L C540 (UniProt O95757) 0.354, UniProt O95232_C40 0.238, SASH1 C822 (UniProt O94885) 0.3, SVIL C1989 (UniProt O95425) 0.358, ZFPL1 C230 (UniProt O95159) 0.26, HEXB C551 (UniProt P07686) 0.259, ANXA2 C9 (UniProt P07355) 0.052, TTC4 C238 (UniProt O95801) -0.0337, UniProt O94927_C262 -0.165, CTSD C117 (UniProt P07339) 0.218, RPLP0 C226 (UniProt P05388) 0.407, EPRS C1497 (UniProt P07814) 0.245, OAT C306 (UniProt P04181) 0.0318, HSPA4L C421 (UniProt O95757) 0.122, DDHD2 C470 (UniProt O94830) 0.175, LMNA C570 (UniProt P02545) 0.32, UniProt O94927_C12 -0.217, AK1 C187 (UniProt P00568) 0.0975, SSB C18 (UniProt P05455) -0.00964, SMC2 C132 (UniProt O95347) -0.0562, UniProt O95104_C102 -0.0213
